Paper PMC9256704
Results are given in words; binding and its absence hold for the method and conditions named. Binding seen in cells or lysates may run through a third protein. These calls come from enrichment with a bait or labelling near it, and not all partners need be listed. Where a sequence is shown, tags or fusion partners need not be part of it.

Sequences of proteins named here, by UniProt entry; tags and fusion partners are left off.
UniProt P14618: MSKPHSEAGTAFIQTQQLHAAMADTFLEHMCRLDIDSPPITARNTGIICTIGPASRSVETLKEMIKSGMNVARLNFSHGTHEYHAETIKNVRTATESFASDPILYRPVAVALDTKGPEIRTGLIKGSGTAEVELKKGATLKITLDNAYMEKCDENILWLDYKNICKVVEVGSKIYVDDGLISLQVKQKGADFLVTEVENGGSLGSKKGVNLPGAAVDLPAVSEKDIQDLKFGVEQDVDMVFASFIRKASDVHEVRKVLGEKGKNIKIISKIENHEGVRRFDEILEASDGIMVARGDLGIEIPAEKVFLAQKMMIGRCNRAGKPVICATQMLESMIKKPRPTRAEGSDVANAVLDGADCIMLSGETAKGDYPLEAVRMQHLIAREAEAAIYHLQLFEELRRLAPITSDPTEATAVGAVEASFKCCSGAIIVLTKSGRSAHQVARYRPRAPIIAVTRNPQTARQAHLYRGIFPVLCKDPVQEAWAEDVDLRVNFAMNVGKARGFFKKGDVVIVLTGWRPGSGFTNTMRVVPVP

Target: T1, GST-TRIB2-Full (UniProt Q92519)
T1 sequence: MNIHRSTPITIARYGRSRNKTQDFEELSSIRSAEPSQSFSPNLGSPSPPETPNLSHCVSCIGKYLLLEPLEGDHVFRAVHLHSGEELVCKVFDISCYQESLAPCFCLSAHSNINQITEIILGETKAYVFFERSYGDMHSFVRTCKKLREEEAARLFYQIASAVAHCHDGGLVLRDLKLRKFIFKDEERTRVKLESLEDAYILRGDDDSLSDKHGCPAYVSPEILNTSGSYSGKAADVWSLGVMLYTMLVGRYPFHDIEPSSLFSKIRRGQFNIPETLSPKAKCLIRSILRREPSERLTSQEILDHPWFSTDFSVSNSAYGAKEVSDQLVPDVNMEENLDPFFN
Assay: affinity purification with mass spectrometry; GST-TRIB2-full incubated with the lysis of lung cancer tissues; pulled-down proteins stained with Coomassie and analysed by Q Exactive LC-MS/MS; only the target purified

- binding: binds
Substance: PKM2 (M2 isoform of pyruvate kinase), endogenous (from UniProt P14618 1-531)
